Consider four molecules from patent US20160159910A1.

In assay [1] the target is human B7-H4 (human). Briefly: fluorescence microscopy of SK-BR3 cells stained with Dylight 594-conjugated 9B9 (10 µg/mL in the text).
Assay [2] addresses human B7-H4 (human). As to the kind of experiment: FACS on MX-1 human breast cancer tumor cells with endogenous human B7-H4.
In assay [3] the target is human B7-H4 (human). As to the kind of experiment: FACS on stable cell line expressing recombinant B7-H4 (hybridoma screen).
Assay [4] concerns the target human B7-H4 (human). Briefly: confocal microscopy of MX-1 cells with the antibody conjugated to a TAMRA/FAM FRET probe with a cathepsin cleavage sequence (2 µg/ml in the text).

These are yes or no findings as the source states them, for the method shown. Binding calls can cover weak binding; strength is not graded here.

B1: murine monoclonal antibody 9B9 (antibody, V domains shown)
VH: QVQLQQSGAELMKPGASVKMSCKATGYTFSSYWIEWVKQRPGHGLEWIGEILPGTSITTYNAKFKVKATFTADTSSNTAYMQLSSLTSEDSAVYFCARYYFGSSSFYFDYWGQGTSLTVSS
VL: QAVVTQESALTTSPGDTVTLTCRSSTGAVTTSNYANWVQEKPDHLFTGLIGGTNNRVPGVPARFSGSLIGDKAALTITGAQTEDEAMYFCALWYNNHWVFGGGTKLE
B1: the binding entry in the assay with human B7-H4 (human) [1], with human B7-H4 (human) [2] and with human B7-H4 (human) [3] was “binds” each time.

B2: chimeric antibody ch22C10 (antibody, human IgG1, V domains shown)
VH: QVQLQQPGAELVKPGTSVKLSCKASGYTFTNFWIHWVIQRPGQGLEWIGEIDPSDSYTNYNQKFKGKATLTVDKSSNTAYMQLSSLTSEDSAVYYCSREITTVDYWGQGTTLTVSS
VL: QIVLTQSPTIMSASPGEKVTLTCSATSSISYMHWYQQKPGTSPKGWIYDTSKLAHGVPARFSGSGSGTSYSLTISSMEAEDAATYYCHQRRSYPFTFGSGTKLEIK
For the molecule B2, the binding entry with human B7-H4 (human) [4] is reported as “binds”.

B3: murine monoclonal antibody 22C10 (antibody, V domains shown)
VH: QVQLQQPGAELVKPGTSVKLSCKASGYTFTNFWIHWVIQRPGQGLEWIGEIDPSDSYTNYNQKFKGKATLTVDKSSNTAYMQLSSLTSEDSAVYYCSREITTVDYWGQGTTLTVSS
VL: QIVLTQSPTIMSASPGEKVTLTCSATSSISYMHWYQQKPGTSPKGWIYDTSKLAHGVPARFSGSGSGTSYSLTISSMEAEDAATYYCHQRRSYPFTFGSGTKLEIK
For B3, the binding result with human B7-H4 (human) [3] was “binds”.

B4: murine monoclonal antibody 32D6 (antibody, V domains shown)
VH: EVQLQQSGPDLVKPGASVKISCKASGYSFTGYYIHWMKQSHGKSLEWIGRVNPNNGDPIYNQKFRGKAILTVDQSSNTAYMELRSLTSEASAVYYCARVLFYYGSPFAYWGQGTLVTVSA
VL: DIVMTQSPSSLIVTAGEKVTMSCRSSQSLFDSGSQRNYLTWFHQKPGRPPKLLIYWASTRESGVPDRFTGSGSGTDFTLTISSVQTEDLAVYFCQNDYSFPFTFGSGTKLEEK
For the molecule B4, the binding result with human B7-H4 (human) [3] is listed as “binds”.
